# Assay results published in patent US20230235039A1.
# B1: single-domain antibody 1F4 (VHH, expressed in E. coli) (VHH, not shown: small tags and cut ends)
# VHH: QVQLVESGGGSAQAGGSLRLSCAASGNTLDLMAWFRQAPGKEREGVAGIYSSGTTYYADSVKGRFTVSRDNAKNTVYLQMNSLKPEDAAMYYCAAKVSWYGRWYQSETYEYWGQGTQVTVSS
# B2: single-domain antibody 2B3 (VHH, expressed in E. coli) (VHH)
# VHH: QVQLVESGGGSVQAGGSLRLSCAASGNTFSFSTYCMGWFRQSPGKEREGSLATIYDGSTAYAGSVKGRFTISVDNAKNILYLQMNNLKPEDTAMYYCAAAKYCMFWSDPSYWGQGTQVTVSS
# B3: single-domain antibody 4B12 (VHH, expressed in E. coli) (VHH, not shown: small tags and cut ends)
# VHH: B2 VHH with A14P, I71V, A99S
# B4: single-domain antibody 4D5 (VHH, expressed in E. coli) (VHH, not shown: small tags and cut ends)
# VHH: B2 VHH with F31T
# B5: single-domain antibody 4C3 (VHH, expressed in E. coli) (VHH, not shown: small tags and cut ends)
# VHH: QVQLVESGGGSVQAGGSLRLSCVASGLTLNDVSMAWFRQAPGKEREEVAGIDIDGLISYADPVKGRFTISKDNAQNTMYLQMNSLKPEDTAMYSCAAVRLYFSSSRNQYKYEGQGTQVTVSS
# B6: single-domain antibody 3G12 (VHH, expressed in E. coli) (VHH)
# VHH: B5 VHH with P62S, M78L
# B7: single-domain antibody 1B8 (VHH, expressed in E. coli) (VHH, not shown: small tags and cut ends)
# VHH: QVQLVESGGGSVQAGGSLRLSCAASGITASTSCMGWFRQSPGKEREGSLATIYDGSTSYADSVKGQFTISVDNAKNILYLQMNNLKPEDTAMYYCAAAKYCMFWSHPSYWGQGTQVTVSS
# B8: single-domain antibody 2G6 (VHH, expressed in E. coli) (VHH)
# VHH: B7 VHH with A29S, S56N, T57I, Q66R, H106D
# B9: single-domain antibody 1B3 (VHH, expressed in E. coli) (VHH, not shown: small tags and cut ends)
# VHH: B7 VHH with Q66R
# B10: single-domain antibody 4H2 (VHH, expressed in E. coli) (VHH, not shown: small tags and cut ends)
# VHH: B7 VHH with G8E, A24V, A29S, S32A, T57I, Q66R, H106D
# B11: single-domain antibody 2F7 (VHH, expressed in E. coli) (VHH)
# VHH: B7 VHH with Q66R, E88A
# Target: human recombinant IL-5 protein with a histidine tag at carboxyl terminal (human)
# Assay: ELISA, IL-5 protein coated on the plate, VHH titrated, anti-HA tag HRP secondary antibody, OD450
row,binding,Binder
1,binds,B1
2,binds,B2
3,binds,B3
4,binds,B4
5,binds,B5
6,binds,B6
7,binds,B7
8,binds,B8
9,binds,B9
10,binds,B10
11,binds,B11

# Residue numbers refer to the chain shown, from its start. Results are given in words; binding and its absence hold for the method and conditions named. A result given as binding can be weak or reduced; the word gives no strength.
